Data published in patent US10059975B2, “Methods for the isolation and identification of microorganisms” (bioMerieux, Inc., priority 2008, dated 2018).

System: positive blood culture broths containing S. pneumoniae, E. coli and S. aureus
Experiment: Screening of density cushion compounds: separation of microorganisms from lysed positive blood culture broth
Settings: 0.7 mL lysate over 0.5 mL cushion, 2 minutes at approximately 10,000 g

## [Cl-].[Cs+] [cesium chloride]
  separation results as density cushion (in words): Excellent separation
